The source of these data is PMC8583208.

The chains behind the UniProt entries cited, without tags or fusion partners.
UniProt Q8LFJ6: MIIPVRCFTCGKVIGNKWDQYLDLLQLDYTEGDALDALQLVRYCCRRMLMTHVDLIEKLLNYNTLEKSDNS

No constants are given. Whether binding was seen depends on the method and setting. Binding calls can cover weak binding; strength is not graded here.

Assay [1] addresses T1, Arabidopsis RNA polymerase III subunit NRPC2 (Arabidopsis thaliana) (UniProt F4KD38).
T1 sequence: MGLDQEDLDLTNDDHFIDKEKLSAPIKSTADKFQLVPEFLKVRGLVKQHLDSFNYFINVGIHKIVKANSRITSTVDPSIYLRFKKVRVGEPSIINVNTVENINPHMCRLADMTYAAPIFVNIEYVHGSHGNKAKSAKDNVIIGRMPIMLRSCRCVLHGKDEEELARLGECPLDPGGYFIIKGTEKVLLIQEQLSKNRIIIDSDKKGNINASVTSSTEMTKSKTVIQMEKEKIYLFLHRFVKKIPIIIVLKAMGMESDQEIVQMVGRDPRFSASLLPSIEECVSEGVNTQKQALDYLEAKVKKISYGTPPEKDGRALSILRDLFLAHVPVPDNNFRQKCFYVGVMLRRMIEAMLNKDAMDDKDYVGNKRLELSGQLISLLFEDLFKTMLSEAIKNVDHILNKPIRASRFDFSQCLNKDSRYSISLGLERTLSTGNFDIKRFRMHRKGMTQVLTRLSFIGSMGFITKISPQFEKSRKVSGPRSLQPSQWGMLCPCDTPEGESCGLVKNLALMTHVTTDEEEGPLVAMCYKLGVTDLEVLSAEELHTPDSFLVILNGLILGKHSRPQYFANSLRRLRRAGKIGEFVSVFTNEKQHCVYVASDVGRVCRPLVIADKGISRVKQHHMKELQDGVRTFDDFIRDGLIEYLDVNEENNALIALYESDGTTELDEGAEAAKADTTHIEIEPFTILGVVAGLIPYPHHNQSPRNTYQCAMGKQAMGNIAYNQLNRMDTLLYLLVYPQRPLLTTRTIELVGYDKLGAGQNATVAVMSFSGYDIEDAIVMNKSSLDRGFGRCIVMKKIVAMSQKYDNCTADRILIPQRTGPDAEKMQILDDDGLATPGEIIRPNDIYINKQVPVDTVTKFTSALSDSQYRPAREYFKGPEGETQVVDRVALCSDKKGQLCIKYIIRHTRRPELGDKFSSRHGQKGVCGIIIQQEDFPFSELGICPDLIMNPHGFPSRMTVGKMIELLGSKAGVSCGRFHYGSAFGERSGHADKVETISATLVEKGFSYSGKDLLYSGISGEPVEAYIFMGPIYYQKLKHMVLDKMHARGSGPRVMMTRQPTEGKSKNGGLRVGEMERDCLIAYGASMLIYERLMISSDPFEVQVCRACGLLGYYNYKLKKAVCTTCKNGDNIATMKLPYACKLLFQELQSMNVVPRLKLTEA
Kind of assay: two-hybrid; CDS of the RNAPIII subunits in pGBKT7 (yeast strain Y2HGold) and in pGADT7 (yeast strain Y187); growth at three dilutions on SD medium lacking Trp, Leu, His and Ade, with SD lacking Trp and Leu as control.

In assay [2] the target is Arabidopsis RNA polymerase III subunit NRPC3 (Arabidopsis thaliana) (UniProt F4IWP6). Described as above.

Turning to “Arabidopsis RNA polymerase III subunit NRPC8”, the binding entry in assay [1] was “binds”. On the same count and under the same terms, to “Arabidopsis RNA polymerase III subunit NRPC10” belongs “binds”.

Take “Arabidopsis RNA polymerase subunit NRPABC3”: the binding result in assay [1] is listed as “binds”. As to “Arabidopsis RNA polymerase subunit NRPABC5 (from UniProt Q8LFJ6 1-71)”, the binding result in assay [2] was “binds”.
